This assay addresses FLAG tagged murine TLR4 (Toll-like receptor 4) (murine) (UniProt Q9QUK6). Put plainly: co-IP.

Amino acid sequences for entries named in this document (tags omitted). Residues count along the entry.
UniProt Q9QUK6, residues 26-835: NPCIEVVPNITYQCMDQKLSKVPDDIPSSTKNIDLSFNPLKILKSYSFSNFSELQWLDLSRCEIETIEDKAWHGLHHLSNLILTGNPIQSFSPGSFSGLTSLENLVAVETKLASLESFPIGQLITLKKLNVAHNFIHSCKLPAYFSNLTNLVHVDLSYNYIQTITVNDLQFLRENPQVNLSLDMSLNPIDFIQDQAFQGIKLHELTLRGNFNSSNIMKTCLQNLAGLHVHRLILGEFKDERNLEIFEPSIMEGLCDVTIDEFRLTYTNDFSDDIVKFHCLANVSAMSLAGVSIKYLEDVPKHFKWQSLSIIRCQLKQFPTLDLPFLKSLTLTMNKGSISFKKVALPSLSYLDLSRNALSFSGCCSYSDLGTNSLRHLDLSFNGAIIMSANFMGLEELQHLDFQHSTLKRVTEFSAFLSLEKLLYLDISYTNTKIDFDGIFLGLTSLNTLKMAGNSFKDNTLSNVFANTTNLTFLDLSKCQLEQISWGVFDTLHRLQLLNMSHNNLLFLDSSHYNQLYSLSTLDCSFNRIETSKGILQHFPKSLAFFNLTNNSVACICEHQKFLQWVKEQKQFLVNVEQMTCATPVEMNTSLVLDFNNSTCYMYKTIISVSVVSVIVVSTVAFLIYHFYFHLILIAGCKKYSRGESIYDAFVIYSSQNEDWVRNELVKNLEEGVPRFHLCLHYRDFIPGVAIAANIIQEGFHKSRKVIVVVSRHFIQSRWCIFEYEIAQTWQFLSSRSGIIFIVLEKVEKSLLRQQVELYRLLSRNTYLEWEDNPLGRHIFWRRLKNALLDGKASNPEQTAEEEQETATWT
UniProt Q6Q1S2, residues 19-1356: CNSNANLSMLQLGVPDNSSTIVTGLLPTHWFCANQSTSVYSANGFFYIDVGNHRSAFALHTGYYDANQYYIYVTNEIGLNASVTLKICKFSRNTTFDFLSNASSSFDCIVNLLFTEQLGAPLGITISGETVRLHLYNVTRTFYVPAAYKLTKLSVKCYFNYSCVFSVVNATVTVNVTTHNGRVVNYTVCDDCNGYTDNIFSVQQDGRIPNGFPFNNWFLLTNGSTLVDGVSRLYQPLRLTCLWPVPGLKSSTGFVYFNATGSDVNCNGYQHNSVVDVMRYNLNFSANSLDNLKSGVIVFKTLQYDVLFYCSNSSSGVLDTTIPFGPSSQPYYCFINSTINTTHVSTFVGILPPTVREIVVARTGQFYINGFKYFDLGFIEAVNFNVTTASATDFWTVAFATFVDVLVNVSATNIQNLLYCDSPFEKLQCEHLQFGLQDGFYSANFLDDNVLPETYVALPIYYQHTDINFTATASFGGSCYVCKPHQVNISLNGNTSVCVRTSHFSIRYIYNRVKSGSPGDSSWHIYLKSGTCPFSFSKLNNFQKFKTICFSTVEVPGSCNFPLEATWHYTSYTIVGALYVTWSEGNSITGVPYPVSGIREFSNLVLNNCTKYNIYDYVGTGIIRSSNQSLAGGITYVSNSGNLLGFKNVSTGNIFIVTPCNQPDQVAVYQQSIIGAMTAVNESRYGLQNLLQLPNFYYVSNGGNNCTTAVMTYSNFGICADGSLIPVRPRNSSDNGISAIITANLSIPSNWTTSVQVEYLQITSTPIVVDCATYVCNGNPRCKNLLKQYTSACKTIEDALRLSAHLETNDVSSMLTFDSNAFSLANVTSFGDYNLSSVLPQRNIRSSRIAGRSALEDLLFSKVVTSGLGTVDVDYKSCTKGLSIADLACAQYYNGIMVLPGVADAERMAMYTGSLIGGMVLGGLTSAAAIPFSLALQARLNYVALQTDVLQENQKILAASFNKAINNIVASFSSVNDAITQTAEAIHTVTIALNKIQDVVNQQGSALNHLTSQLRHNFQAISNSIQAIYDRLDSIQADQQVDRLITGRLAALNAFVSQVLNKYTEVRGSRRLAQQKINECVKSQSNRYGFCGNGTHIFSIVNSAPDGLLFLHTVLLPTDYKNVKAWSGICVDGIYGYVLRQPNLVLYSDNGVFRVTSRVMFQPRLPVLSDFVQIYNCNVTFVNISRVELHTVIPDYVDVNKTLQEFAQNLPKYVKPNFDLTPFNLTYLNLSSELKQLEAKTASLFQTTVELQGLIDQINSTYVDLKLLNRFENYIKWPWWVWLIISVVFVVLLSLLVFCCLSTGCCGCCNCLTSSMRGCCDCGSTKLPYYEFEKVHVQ

Results are given in words; binding and its absence hold for the method and conditions named. Binding seen in cells or lysates may run through a third protein.

Here are results for 1 substance from publication doi:10.1101/2021.06.20.448993.

As for “8xHis tagged HCoV-NL63 Spike (from UniProt Q6Q1S2 19-1356)”, the binding result is on record as “no binding”.
